# Reference: paper PMC7694386
# Sequences of proteins named here, by UniProt entry; tags and fusion partners are left off.
# UniProt O95817: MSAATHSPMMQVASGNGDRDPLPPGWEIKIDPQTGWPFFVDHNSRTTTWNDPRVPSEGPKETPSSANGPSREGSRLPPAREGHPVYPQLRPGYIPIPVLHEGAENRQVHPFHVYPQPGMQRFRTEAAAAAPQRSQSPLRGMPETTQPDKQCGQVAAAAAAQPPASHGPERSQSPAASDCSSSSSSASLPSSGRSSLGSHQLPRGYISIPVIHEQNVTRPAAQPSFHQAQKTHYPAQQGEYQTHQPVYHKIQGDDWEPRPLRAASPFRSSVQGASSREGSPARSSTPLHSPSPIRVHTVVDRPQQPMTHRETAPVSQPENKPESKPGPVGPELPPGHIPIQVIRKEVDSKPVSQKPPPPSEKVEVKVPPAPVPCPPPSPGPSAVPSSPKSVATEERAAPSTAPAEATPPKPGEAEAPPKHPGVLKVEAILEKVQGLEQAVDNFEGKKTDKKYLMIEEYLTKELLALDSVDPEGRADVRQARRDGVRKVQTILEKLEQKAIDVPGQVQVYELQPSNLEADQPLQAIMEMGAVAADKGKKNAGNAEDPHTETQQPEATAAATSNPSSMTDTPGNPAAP
# Results are given in words; binding and its absence hold for the method and conditions named. In cells and extracts the contact can be indirect. Here binding means that the protein was enriched with, or labelled near, the bait; the list need not be complete. Sequences can lack the tags named with a protein.
# B1: NOB1 (protein, UniProt Q9ULX3 1-412)
# chain: MAPVEHVVADAGAFLRHAALQDIGKNIYTIREVVTEIRDKATRRRLAVLPYELRFKEPLPEYVRLVTEFSKKTGDYPSLSATDIQVLALTYQLEAEFVGVSHLKQEPQKVKVSSSIQHPETPLHISGFHLPYKPKPPQETEKGHSACEPENLEFSSFMFWRNPLPNIDHELQELLIDRGEDVPSEEEEEEENGFEDRKDDSDDDGGGWITPSNIKQIQQELEQCDVPEDVRVGCLTTDFAMQNVLLQMGLHVLAVNGMLIREARSYILRCHGCFKTTSDMSRVFCSHCGNKTLKKVSVTVSDDGTLHMHFSRNPKVLNPRGLRYSLPTPKGGKYAINPHLTEDQRFPQLRLSQKARQKTNVFAPDYIAGVSPFVENDISSRSATLQVRDSTLGAGRRRLNPNASRKKFVKKR
# B2: CPSF7 (protein, UniProt Q8N684 1-471)
# chain: MSEGVDLIDIYADEEFNQDPEFNNTDQIDLYDDVLTATSQPSDDRSSSTEPPPPVRQEPSPKPNNKTPAILYTYSGLRNRRAAVYVGSFSWWTTDQQLIQVIRSIGVYDVVELKFAENRANGQSKGYAEVVVASENSVHKLLELLPGKVLNGEKVDVRPATRQNLSQFEAQARKRECVRVPRGGIPPRAHSRDSSDSADGRATPSENLVPSSARVDKPPSVLPYFNRPPSALPLMGLPPPPIPPPPPLSSSFGVPPPPPGIHYQHLMPPPPRLPPHLAVPPPGAIPPALHLNPAFFPPPNATVGPPPDTYMKASAPYNHHGSRDSGPPPSTVSEAEFEDIMKRNRAISSSAISKAVSGASAGDYSDAIETLLTAIAVIKQSRVANDERCRVLISSLKDCLHGIEAKSYSVGASGSSSRKRHRSRERSPSRSRESSRRHRDLLHNEDRHDDYFQERNREHERHRDRERDRHH
# B3: REXO4 (protein, UniProt Q9GZR2 1-422)
# chain: MGKAKVPASKRAPSSPVAKPGPVKTLTRKKNKKKKRFWKSKAREVSKKPASGPGAVVRPPKAPEDFSQNWKALQEWLLKQKSQAPEKPLVISQMGSKKKPKIIQQNKKETSPQVKGEEMPAGKDQEASRGSVPSGSKMDRRAPVPRTKASGTEHNKKGTKERTNGDIVPERGDIEHKKRKAKEAAPAPPTEEDIWFDDVDPADIEAAIGPEAAKIARKQLGQSEGSVSLSLVKEQAFGGLTRALALDCEMVGVGPKGEESMAARVSIVNQYGKCVYDKYVKPTEPVTDYRTAVSGIRPENLKQGEELEVVQKEVAEMLKGRILVGHALHNDLKVLFLDHPKKKIRDTQKYKPFKSQVKSGRPSLRLLSEKILGLQVQQAEHCSIQDAQAAMRLYVMVKKEWESMARDRRPLLTAPDHCSDDA
# B4: RBFOX2 (protein, UniProt O43251 1-390)
# chain: MQNEPLTPGYHGFPARDSQGNQEPTTTPDAMVQPFTTIPFPPPPQNGIPTEYGVPHTQDYAGQTGEHNLTLYGSTQAHGEQSSNSPSTQNGSLTTEGGAQTDGQQSQTQSSENSESKSTPKRLHVSNIPFRFRDPDLRQMFGQFGKILDVEIIFNERGSKGFGFVTFENSADADRAREKLHGTVVEGRKIEVNNATARVMTNKKMVTPYANGWKLSPVVGAVYGPELYAASSFQADVSLGNDAAVPLSGRGGINTYIPLISLPLVPGFPYPTAATTAAAFRGAHLRGRGRTVYGAVRAVPPTAIPAYPGVVYQDGFYGADLYGGYAAYRYAQPATATAATAAAAAAAAYSDGYGRVYTADPYHALAPAASYGVGAVASLYRGGYSRFAPY
# B5: SRSF6 (protein, UniProt Q13247 1-344)
# chain: MPRVYIGRLSYNVREKDIQRFFSGYGRLLEVDLKNGYGFVEFEDSRDADDAVYELNGKELCGERVIVEHARGPRRDRDGYSYGSRSGGGGYSSRRTSGRDKYGPPVRTEYRLIVENLSSRCSWQDLKDFMRQAGEVTYADAHKERTNEGVIEFRSYSDMKRALDKLDGTEINGRNIRLIEDKPRTSHRRSYSGSRSRSRSRRRSRSRSRRSSRSRSRSISKSRSRSRSRSKGRSRSRSKGRKSRSKSKSKPKSDRGSHSHSRSRSKDEYEKSRSRSRSRSPKENGKGDIKSKSRSRSQSRSNSPLPVPPSKARSVSPPPKRATSRSRSRSRSKSRSRSRSSSRD
# B6: Putative RNA-binding protein Luc7-like 2 (protein, UniProt Q9Y383 1-392)
# chain: MSAQAQMRAMLDQLMGTSRDGDTTRQRIKFSDDRVCKSHLLNCCPHDVLSGTRMDLGECLKVHDLALRADYEIASKEQDFFFELDAMDHLQSFIADCDRRTEVAKKRLAETQEEISAEVAAKAERVHELNEEIGKLLAKVEQLGAEGNVEESQKVMDEVEKARAKKREAEEVYRNSMPASSFQQQKLRVCEVCSAYLGLHDNDRRLADHFGGKLHLGFIEIREKLEELKRVVAEKQEKRNQERLKRREEREREEREKLRRSRSHSKNPKRSRSREHRRHRSRSMSRERKRRTRSKSREKRHRHRSRSSSRSRSRSHQRSRHSSRDRSRERSKRRSSKERFRDQDLASCDRDRSSRDRSPRDRDRKDKKRSYESANGRSEDRRSSEEREAGEI
# B7: HNRNPL (protein, UniProt P14866 1-589)
# chain: MSRRLLPRAEKRRRRLEQRQQPDEQRRRSGAMVKMAAAGGGGGGGRYYGGGSEGGRAPKRLKTDNAGDQHGGGGGGGGGAGAAGGGGGGENYDDPHKTPASPVVHIRGLIDGVVEADLVEALQEFGPISYVVVMPKKRQALVEFEDVLGACNAVNYAADNQIYIAGHPAFVNYSTSQKISRPGDSDDSRSVNSVLLFTILNPIYSITTDVLYTICNPCGPVQRIVIFRKNGVQAMVEFDSVQSAQRAKASLNGADIYSGCCTLKIEYAKPTRLNVFKNDQDTWDYTNPNLSGQGDPGSNPNKRQRQPPLLGDHPAEYGGPHGGYHSHYHDEGYGPPPPHYEGRRMGPPVGGHRRGPSRYGPQYGHPPPPPPPPEYGPHADSPVLMVYGLDQSKMNCDRVFNVFCLYGNVEKVKFMKSKPGAAMVEMADGYAVDRAITHLNNNFMFGQKLNVCVSKQPAIMPGQSYGLEDGSCSYKDFSESRNNRFSTPEQAAKNRIQHPSNVLHFFNAPLEVTEENFFEICDELGVKRPSSVKVFSGKSERSSSGLLEWESKSDALETLGFLNHYQMKNPNGPYPYTLKLCFSTAQHAS
# B8: BYSL (protein, UniProt Q13895 1-437)
# chain: MPKFKAARGVGGQEKHAPLADQILAGNAVRAGVREKRRGRGTGEAEEEYVGPRLSRRILQQARQQQEELEAEHGTGDKPAAPRERTTRLGPRMPQDGSDDEDEEWPTLEKAATMTAAGHHAEVVVDPEDERAIEMFMNKNPPARRTLADIIMEKLTEKQTEVETVMSEVSGFPMPQLDPRVLEVYRGVREVLSKYRSGKLPKAFKIIPALSNWEQILYVTEPEAWTAAAMYQATRIFASNLKERMAQRFYNLVLLPRVRDDVAEYKRLNFHLYMALKKALFKPGAWFKGILIPLCESGTCTLREAIIVGSIITKCSIPVLHSSAAMLKIAEMEYSGANSIFLRLLLDKKYALPYRVLDALVFHFLGFRTEKRELPVLWHQCLLTLVQRYKADLATDQKEALLELLRLQPHPQLSPEIRRELQSAVPRDVEDVPITVE
# B9: TSR1 (protein, UniProt Q2NL82 1-804)
# chain: MAAHRPGPLKQQNKAHKGGRHRGRGSAQRDGKGRLALKTLSKKVRKELSRVDQRHRASQLRKQKKEAVLAEKRQLGGKDGPPHQVLVVPLHSRISLPEAMQLLQDRDTGTVHLNELGNTQNFMLLCPRLKHRWFFTSARPGDLHVVLDMAKVADTILFLLDPLEGWDSTGDYCLSCLFAQGLPTYTLAVQGISGLPLKKQIDTRKKLSKAVEKRFPHDKLLLLDTQQEAGMLLRQLANQKQQHLAFRDRRAYLFAHAVDFVPSEENNLVGTLKISGYVRGQTLNVNRLLHIVGYGDFQMKQIDAPGDPFPLNPRGIKPQKDPDMAMEICATDAVDDMEEGLKVLMKADPGRQESLQAEVIPDPMEGEQTWPTEEELSEAKDFLKESSKVVKKVPKGTSSYQAEWILDGGSQSGGEGDEYEYDDMEHEDFMEEESQDESSEEEEEYETMTIGESVHDDLYDKKVDEEAEAKMLEKYKQERLEEMFPDEVDTPRDVAARIRFQKYRGLKSFRTSPWDPKENLPQDYARIFQFQNFTNTRKSIFKEVEEKEVEGAEVGWYVTLHVSEVPVSVVECFRQGTPLIAFSLLPHEQKMSVLNMVVRRDPGNTEPVKAKEELIFHCGFRRFRASPLFSQHTAADKHKLQRFLTADMALVATVYAPITFPPASVLLFKQKSNGMHSLIATGHLMSVDPDRMVIKRVVLSGHPFKIFTKMAVVRYMFFNREDVLWFKPVELRTKWGRRGHIKEPLGTHGHMKCSFDGKLKSQDTVLMNLYKRVFPKWTYDPYVPEPVPWLKSEISSTVPQGGME
# B10: NOP14 (protein, UniProt P78316 1-857)
# chain: MAKAKKVGARRKASGAPAGARGGPAKANSNPFEVKVNRQKFQILGRKTRHDVGLPGVSRARALRKRTQTLLKEYKERDKSNVFRDKRFGEYNSNMSPEEKMMKRFALEQQRHHEKKSIYNLNEDEELTHYGQSLADIEKHNDIVDSDSDAEDRGTLSAELTAAHFGGGGGLLHKKTQQEGEEREKPKSRKELIEELIAKSKQEKRERQAQREDALELTEKLDQDWKEIQTLLSHKTPKSENRDKKEKPKPDAYDMMVRELGFEMKAQPSNRMKTEAELAKEEQEHLRKLEAERLRRMLGKDEDENVKKPKHMSADDLNDGFVLDKDDRRLLSYKDGKMNVEEDVQEEQSKEASDPESNEEEGDSSGGEDTEESDSPDSHLDLESNVESEEENEKPAKEQRQTPGKGLISGKERAGKATRDELPYTFAAPESYEELRSLLLGRSMEEQLLVVERIQKCNHPSLAEGNKAKLEKLFGFLLEYVGDLATDDPPDLTVIDKLVVHLYHLCQMFPESASDAIKFVLRDAMHEMEEMIETKGRAALPGLDVLIYLKITGLLFPTSDFWHPVVTPALVCLSQLLTKCPILSLQDVVKGLFVCCLFLEYVALSQRFIPELINFLLGILYIATPNKASQGSTLVHPFRALGKNSELLVVSAREDVATWQQSSLSLRWASRLRAPTSTEANHIRLSCLAVGLALLKRCVLMYGSLPSFHAIMGPLQALLTDHLADCSHPQELQELCQSTLTEMESQKQLCRPLTCEKSKPVPLKLFTPRLVKVLEFGRKQGSSKEEQERKRLIHKHKREFKGAVREIRKDNQFLARMQLSEIMERDAERKRKVKQLFNSLATQEGEWKALKRKKFKK
# Target: BAG3 (BCL-2-associated athanogene 3) (human (endogenous in HEK293T)) (UniProt O95817)
# Assay: affinity purification with mass spectrometry; endogenous BAG3 immunoprecipitated with anti-BAG3 antibody and Protein A/G magnetic beads from HEK293T lysate; cells treated with DMSO (basal) or 10 µM MG132 for 6 h; IgG IP (MG132_IgG) as control; label-free quantification, three biological replicates
row,binding,Binder
1,binds,B1
2,binds,B2
3,binds,B3
4,binds,B4
5,binds,B5
6,binds,B6
7,binds,B7
8,binds,B8
9,binds,B9
10,binds,B10
